Values quoted from earlier work as cited in US10912471B2, “System and method for automatic perfusion measurement” (priority 2018, dated 2021).

Conditions: administered intravenously; depending on liver performance; eliminated by the liver to bile juice

Q: For `CC1(C)C(/C=C/C=C/C=C/C=C2\N(CCCCS(=O)(=O)O)c3ccc4ccccc4c3C2(C)C)=[N+](CCCCS(=O)(=O)[O-])c2ccc3ccccc3c21` [ICG, Indocyanine green], which “half life of elimination from the body” value is on record?
A: 3 to 4 min
